Some of the results follow. The data scatter; read single values as rough.
How the values were obtained:
[1] = compound: ClCC(=O)N[C@@H]1CCCc2ccccc12; assay: log2 mean competition ratio of IA-DTB cysteine labelling (DMSO/compound) (log2 ratio); higher = stronger cysteine engagement by compound; conditions: treatment time: 4 h, cell line lysate: HEK293T
Procedure: (§1)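 IA-DTB competitive cysteine chemoproteomics in HEK293T RIPA lysate. Lysates were treated with compound 29 or 30 at 50 or 200 µM for 4 h, then IA-DTB (500 µM, 1 h), trypsin-digested, NeutrAvidin-enriched and analysed by diaPASEF. Competition ratio = intensity DMSO / intensity compound (n=4 treated, n=64 DMSO); binding: mean log2 CR ≥ 1 and p ≤ 0.05 plus QC filters. Target is the cysteine site.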

Amino acid sequences for entries named in this document (tags omitted). A change or cut given only in a name is not applied to a line headed by its entry. Residues count along the entry.
UniProt Q7RTS9: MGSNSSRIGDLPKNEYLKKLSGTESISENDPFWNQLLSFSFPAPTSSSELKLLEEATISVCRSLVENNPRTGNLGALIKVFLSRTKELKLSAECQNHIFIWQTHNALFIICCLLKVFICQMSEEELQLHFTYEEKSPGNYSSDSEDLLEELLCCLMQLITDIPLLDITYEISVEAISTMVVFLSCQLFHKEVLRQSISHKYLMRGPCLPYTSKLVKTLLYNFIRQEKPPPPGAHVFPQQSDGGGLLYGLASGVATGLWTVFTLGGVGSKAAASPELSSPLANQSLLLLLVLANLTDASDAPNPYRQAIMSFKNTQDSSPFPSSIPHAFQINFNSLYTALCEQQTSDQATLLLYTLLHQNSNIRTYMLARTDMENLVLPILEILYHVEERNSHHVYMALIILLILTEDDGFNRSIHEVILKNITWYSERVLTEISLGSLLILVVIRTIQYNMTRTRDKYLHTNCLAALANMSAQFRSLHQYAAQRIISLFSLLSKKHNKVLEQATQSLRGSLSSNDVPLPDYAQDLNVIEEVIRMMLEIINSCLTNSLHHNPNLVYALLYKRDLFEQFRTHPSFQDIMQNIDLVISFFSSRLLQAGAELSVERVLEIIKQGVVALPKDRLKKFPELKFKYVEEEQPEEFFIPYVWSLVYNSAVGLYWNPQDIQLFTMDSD
UniProt Q8NCM8: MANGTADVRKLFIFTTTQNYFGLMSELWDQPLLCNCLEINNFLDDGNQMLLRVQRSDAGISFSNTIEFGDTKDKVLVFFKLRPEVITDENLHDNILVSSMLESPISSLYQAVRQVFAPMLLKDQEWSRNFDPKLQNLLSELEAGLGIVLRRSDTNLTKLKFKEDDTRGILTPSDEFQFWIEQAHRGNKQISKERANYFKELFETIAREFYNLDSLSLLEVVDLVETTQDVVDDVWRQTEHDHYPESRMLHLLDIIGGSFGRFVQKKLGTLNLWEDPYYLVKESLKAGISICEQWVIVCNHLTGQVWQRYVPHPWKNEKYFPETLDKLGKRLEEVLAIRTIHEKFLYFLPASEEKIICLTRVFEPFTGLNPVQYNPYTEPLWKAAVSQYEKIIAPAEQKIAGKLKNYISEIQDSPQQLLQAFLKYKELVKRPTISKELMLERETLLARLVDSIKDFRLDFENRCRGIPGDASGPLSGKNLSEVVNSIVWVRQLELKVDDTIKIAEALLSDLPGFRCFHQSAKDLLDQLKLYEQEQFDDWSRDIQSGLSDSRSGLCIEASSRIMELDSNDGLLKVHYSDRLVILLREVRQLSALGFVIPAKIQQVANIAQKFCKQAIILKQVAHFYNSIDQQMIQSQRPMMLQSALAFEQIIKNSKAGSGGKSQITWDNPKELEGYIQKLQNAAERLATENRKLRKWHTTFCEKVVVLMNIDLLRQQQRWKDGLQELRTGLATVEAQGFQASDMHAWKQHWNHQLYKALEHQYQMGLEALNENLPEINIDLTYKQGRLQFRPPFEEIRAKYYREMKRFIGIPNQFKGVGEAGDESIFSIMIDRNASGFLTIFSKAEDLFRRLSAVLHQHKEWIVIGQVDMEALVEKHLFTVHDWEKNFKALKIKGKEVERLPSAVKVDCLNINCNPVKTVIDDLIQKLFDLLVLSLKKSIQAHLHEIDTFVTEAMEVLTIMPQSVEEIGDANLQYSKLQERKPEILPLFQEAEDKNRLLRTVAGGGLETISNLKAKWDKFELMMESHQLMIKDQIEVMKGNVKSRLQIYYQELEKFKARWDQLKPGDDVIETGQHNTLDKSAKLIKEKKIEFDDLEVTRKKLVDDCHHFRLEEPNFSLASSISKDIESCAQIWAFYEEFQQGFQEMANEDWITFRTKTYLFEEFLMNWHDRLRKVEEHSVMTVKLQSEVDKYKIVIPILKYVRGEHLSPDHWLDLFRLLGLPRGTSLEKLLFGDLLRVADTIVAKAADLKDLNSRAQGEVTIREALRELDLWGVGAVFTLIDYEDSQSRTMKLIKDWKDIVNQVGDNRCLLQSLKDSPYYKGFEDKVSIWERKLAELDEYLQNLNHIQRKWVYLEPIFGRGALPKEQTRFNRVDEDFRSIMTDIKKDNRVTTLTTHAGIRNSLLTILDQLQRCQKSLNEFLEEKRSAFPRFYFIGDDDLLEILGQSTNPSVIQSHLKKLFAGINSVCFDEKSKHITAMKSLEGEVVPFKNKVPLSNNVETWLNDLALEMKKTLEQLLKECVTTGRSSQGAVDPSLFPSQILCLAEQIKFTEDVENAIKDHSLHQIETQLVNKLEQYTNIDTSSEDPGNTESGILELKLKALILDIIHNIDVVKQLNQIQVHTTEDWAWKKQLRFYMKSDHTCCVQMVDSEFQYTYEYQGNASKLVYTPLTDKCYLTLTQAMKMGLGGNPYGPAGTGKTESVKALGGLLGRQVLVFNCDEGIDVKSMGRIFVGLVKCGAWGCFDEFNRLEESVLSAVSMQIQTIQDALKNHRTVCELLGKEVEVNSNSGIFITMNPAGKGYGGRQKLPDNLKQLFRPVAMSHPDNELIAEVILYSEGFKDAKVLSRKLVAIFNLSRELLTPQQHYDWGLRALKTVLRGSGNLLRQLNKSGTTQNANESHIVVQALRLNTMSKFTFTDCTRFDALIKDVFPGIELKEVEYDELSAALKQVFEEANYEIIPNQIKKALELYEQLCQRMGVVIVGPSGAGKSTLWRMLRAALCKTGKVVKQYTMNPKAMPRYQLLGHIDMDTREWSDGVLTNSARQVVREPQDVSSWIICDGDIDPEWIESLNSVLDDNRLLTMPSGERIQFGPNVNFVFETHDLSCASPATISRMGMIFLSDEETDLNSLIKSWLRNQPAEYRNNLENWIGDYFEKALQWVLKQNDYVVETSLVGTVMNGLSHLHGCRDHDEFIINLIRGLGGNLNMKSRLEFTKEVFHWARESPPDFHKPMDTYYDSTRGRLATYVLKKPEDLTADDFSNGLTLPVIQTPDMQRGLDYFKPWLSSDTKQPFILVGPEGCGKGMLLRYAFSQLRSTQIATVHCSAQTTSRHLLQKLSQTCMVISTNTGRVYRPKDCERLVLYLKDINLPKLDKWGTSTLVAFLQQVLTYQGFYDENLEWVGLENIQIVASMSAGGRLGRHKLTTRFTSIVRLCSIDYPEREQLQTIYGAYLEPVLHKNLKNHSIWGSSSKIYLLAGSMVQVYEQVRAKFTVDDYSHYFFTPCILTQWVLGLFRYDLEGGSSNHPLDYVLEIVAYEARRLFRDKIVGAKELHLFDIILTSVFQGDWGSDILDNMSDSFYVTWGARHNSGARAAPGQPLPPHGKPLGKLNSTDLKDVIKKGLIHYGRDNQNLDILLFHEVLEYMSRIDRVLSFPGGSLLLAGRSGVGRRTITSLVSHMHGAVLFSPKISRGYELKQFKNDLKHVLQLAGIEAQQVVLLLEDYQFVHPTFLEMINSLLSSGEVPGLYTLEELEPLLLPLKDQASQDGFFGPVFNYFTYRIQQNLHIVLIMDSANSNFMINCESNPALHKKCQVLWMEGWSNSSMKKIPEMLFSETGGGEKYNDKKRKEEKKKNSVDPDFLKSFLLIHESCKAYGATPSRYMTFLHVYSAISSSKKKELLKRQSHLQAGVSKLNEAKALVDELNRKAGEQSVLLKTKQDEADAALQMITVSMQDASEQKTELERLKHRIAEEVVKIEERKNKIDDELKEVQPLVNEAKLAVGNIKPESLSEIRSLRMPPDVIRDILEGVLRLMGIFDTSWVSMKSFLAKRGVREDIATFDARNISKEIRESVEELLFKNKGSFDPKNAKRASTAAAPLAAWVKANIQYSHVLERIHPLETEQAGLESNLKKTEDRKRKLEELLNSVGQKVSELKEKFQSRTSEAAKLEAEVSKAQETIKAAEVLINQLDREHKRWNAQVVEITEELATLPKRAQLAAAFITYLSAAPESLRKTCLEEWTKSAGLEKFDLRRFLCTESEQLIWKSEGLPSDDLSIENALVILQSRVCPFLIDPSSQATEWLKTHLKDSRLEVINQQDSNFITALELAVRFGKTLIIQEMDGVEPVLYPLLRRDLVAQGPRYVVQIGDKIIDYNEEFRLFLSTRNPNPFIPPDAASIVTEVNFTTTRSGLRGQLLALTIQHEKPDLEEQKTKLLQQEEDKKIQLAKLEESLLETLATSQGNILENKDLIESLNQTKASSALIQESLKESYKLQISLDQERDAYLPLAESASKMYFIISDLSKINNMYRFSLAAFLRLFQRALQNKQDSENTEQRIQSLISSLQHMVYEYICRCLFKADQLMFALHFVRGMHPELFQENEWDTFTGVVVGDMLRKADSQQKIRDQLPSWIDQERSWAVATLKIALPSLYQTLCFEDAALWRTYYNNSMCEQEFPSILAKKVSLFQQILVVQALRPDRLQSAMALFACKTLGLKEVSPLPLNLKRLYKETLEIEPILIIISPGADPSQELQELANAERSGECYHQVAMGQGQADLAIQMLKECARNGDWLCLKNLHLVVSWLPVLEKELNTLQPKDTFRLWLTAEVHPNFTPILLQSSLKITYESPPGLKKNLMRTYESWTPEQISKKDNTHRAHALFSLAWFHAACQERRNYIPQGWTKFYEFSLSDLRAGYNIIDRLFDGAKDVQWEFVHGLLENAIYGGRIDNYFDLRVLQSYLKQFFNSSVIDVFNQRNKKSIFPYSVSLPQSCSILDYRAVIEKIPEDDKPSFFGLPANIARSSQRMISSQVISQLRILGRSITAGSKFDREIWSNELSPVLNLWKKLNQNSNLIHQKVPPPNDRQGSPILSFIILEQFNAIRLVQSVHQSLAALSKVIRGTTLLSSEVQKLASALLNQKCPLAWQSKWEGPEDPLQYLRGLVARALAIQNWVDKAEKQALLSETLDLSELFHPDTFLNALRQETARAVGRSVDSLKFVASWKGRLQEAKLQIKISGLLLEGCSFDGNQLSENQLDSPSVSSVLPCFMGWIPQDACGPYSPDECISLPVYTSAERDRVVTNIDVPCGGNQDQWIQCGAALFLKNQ
UniProt Q03001, 396-416: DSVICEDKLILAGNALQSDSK
UniProt Q99613, 458-485: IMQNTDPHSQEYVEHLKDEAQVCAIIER
UniProt Q9BQI3, 247-270: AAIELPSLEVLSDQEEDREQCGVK
UniProt Q8N5C7, 24-49: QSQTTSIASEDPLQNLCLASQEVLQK
UniProt Q15723: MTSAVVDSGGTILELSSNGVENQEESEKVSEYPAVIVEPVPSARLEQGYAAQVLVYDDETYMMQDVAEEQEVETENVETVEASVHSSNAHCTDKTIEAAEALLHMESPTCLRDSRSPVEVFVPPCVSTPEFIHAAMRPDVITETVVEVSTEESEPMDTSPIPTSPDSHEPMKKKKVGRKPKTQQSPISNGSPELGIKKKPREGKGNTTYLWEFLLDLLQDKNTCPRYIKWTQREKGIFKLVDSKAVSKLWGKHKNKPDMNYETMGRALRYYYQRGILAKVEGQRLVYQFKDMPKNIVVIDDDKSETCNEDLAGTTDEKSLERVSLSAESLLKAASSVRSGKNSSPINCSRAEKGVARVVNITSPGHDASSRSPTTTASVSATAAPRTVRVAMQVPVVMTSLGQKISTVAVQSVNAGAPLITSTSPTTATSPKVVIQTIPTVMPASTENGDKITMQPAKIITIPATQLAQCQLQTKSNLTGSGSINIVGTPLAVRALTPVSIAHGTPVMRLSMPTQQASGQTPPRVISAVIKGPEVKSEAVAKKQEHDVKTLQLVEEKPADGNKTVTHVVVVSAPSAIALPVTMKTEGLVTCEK
UniProt P05198, whole entry, looked up: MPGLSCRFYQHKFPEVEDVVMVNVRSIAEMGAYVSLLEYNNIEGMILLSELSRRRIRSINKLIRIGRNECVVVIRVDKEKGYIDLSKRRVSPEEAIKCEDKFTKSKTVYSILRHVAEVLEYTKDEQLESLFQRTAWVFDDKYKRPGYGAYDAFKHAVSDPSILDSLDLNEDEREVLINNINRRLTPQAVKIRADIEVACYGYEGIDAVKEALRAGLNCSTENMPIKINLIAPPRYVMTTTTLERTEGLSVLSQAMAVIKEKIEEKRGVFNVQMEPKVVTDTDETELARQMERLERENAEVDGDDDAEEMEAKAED
UniProt Q8NDI1, 663-686: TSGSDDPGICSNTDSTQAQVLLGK
UniProt Q9GZV4, 2-26: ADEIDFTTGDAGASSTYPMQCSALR
UniProt Q7L2H7, 130-149: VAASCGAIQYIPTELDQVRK
UniProt Q05639, whole entry, looked up: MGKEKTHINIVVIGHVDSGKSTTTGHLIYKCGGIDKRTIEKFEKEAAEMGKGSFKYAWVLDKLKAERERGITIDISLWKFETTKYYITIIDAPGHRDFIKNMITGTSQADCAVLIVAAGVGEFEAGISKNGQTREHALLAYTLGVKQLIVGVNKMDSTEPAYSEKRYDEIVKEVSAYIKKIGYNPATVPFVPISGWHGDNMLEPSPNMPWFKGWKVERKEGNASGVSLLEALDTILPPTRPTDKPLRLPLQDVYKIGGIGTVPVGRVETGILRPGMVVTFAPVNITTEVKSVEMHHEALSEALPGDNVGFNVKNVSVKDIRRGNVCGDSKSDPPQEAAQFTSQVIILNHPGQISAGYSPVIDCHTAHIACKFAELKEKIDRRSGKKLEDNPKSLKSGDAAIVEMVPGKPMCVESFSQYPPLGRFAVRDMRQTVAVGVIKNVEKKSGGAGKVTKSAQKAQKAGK
UniProt Q96G46, 384-404: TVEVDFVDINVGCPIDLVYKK
UniProt P26641, 254-275: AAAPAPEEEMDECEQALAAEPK

[2] = compound: ClCC(=O)N[C@H]1CCCc2ccccc12; assay: as above; conditions: treatment time: 4 h, cell line lysate: HEK293T
Procedure: as §1

Target	log2 mean competition ratio ([1]; 50 µM)	log2 mean competition ratio ([1]; 200 µM)	log2 mean competition ratio ([2]; 200 µM)	log2 mean competition ratio ([2]; 50 µM)
DYM C207 (UniProt Q7RTS9)	0.0113	0.147	–	–
DYNC2H1 C700 (UniProt Q8NCM8)	0.052	0.171	-0.123	–
DST C400 (UniProt Q03001)	-0.505	0.0336	-0.166	-0.379
EIF3C C480 (UniProt Q99613)	-0.208	-0.0138	-0.337	-0.176
EIF2B1 C115 (UniProt Q14232)	0.238	-0.0307	–	–
EIF2AK1 C466 (UniProt Q9BQI3)	-0.17	0.0738	–	–
DYNC2H1 C2295 (UniProt Q8NCM8)	-0.23	0.355	–	–
DTWD1 C40 (UniProt Q8N5C7)	-0.639	-0.132	0.134	-0.289
DTL C136 (UniProt Q9NZJ0)	-0.109	-0.248	-0.142	0.488
ELF2 C110 (UniProt Q15723)	0.206	0.0456	–	–
EIF2S1 C70 (UniProt P05198)	0.128	0.326	–	–
EFL1 C670 (UniProt Q7Z2Z2)	-0.0314	0.0886	–	–
DST C3653 (UniProt Q03001)	-0.18	-0.193	–	–
DTL C157 (UniProt Q9NZJ0)	-0.0757	-0.211	–	–
EIF2S3B C269	-0.0996	-0.139	–	–
ELL2 C308	-0.152	-0.0925	–	–
EHBP1 C672 (UniProt Q8NDI1)	-0.457	0.225	0.0332	-0.151
EIF5A2 C22 (UniProt Q9GZV4)	-0.0643	-0.00382	-0.463	–
EIF2D C133 (UniProt P41214)	0.125	-0.119	-0.232	0.0556
DSTN C135 (UniProt P60981)	-0.0205	-0.417	-0.366	0.204

Target	log2 mean competition ratio ([1]; 50 µM)	log2 mean competition ratio ([1]; 200 µM)	log2 mean competition ratio ([2]; 200 µM)	log2 mean competition ratio ([2]; 50 µM)
DZIP3 C318 (UniProt Q86Y13)	-0.00765	0.127	–	–
ELF2 C591 (UniProt Q15723)	-0.175	-0.249	0.103	0.437
DUS2 C116 (UniProt Q9NX74)	-0.0896	-0.33	–	–
EIF2AK4 C454 (UniProt Q9P2K8)	-0.225	0.345	-0.115	-0.87
EIF2S2 C226 (UniProt P20042)	-0.0173	-0.167	–	–
DYNC1H1 C2639 (UniProt Q14204)	0.0638	-0.00563	-0.148	0.0211
EIF3M C134 (UniProt Q7L2H7)	-0.149	-0.16	-0.356	-0.103
DZIP3 C1078 (UniProt Q86Y13)	0.0577	-0.109	–	–
EEF1A2 C326 (UniProt Q05639)	-0.199	0.113	–	–
EHMT2 C126	-0.092	-0.103	–	–
EFR3A C767 (UniProt Q14156)	-0.214	0.0535	–	–
EIF2AK1 C267 (UniProt Q9BQI3)	-0.285	-0.289	-0.353	0.19
EGLN1 C127 (UniProt Q9GZT9)	-0.0691	0.223	–	–
DSC2 C841 (UniProt Q02487)	-0.0508	-0.129	–	–
EIF5B C1126 (UniProt O60841)	-0.363	0.107	–	–
ELF2 C348 (UniProt Q15723)	-0.0662	0.0425	0.0813	0.191
ECT2 C686 (UniProt Q9H8V3)	-0.0922	0.0496	–	–
EIF2S1 C199 (UniProt P05198)	-0.108	0.289	–	–
DSN1 C191 (UniProt Q9H410)	-0.0788	0.0894	0.18	-0.134
DSP C1148 (UniProt P15924)	-0.284	0.369	0.229	-0.111

Taken from above.
EIF2S1 C70 (UniProt P05198) – log2 mean competition ratio ([1]; 50 µM): 0.128
EHBP1 C672 (UniProt Q8NDI1) – log2 mean competition ratio ([2]; 50 µM): -0.151
DTWD1 C40 (UniProt Q8N5C7) – log2 mean competition ratio ([1]; 200 µM): -0.132

(cont.)

Target	log2 mean competition ratio ([1]; 50 µM)	log2 mean competition ratio ([1]; 200 µM)	log2 mean competition ratio ([2]; 200 µM)	log2 mean competition ratio ([2]; 50 µM)
EEF2 C693 (UniProt P13639)	-0.169	0.247	0.296	-0.329
EEF2 C369 (UniProt P13639)	-0.337	-0.456	-0.357	0.00655
EHMT2 C1115	0.0788	0.269	-0.00825	-0.749
DUS3L C396 (UniProt Q96G46)	0.0941	0.713	0.322	0.0551
DVL1 C72 (UniProt O14640)	-0.0562	0.266	0.168	-0.561
ECHS1 C111 (UniProt P30084)	0.412	0.248	-0.156	0.719
EIF3F C256 (UniProt O00303)	-0.181	-0.184	-0.16	-0.225
DTNA C309	0.238	0.188	0.192	0.27
DYNC1H1 C978 (UniProt Q14204)	-0.112	0.109	0.212	0.362
DST C4370 (UniProt Q03001)	-0.263	-0.235	-0.224	-0.165
EIF5A C73	-0.358	0.264	-0.02	-0.616
ECT2 C584 (UniProt Q9H8V3)	0.176	0.189	0.172	0.0506
ELAC2 C753 (UniProt Q9BQ52)	0.00868	0.208	0.24	-0.518
DTYMK C31 (UniProt P23919)	0.343	-0.0848	-0.189	0.374
EEF1G C266 (UniProt P26641)	-0.461	-0.031	0.0402	-0.0907
EIF2S3B C236	-0.332	-0.478	-0.358	0.0412
EIF2B5 C414	0.248	0.0138	-0.178	0.12
ECPAS C1257 (UniProt Q5VYK3)	0.12	0.292	0.35	-0.185
EIF3K C87 (UniProt Q9UBQ5)	0.103	-0.1	-0.208	-0.366
